Experimental data taken from paper PMC4657622.
No constants are given. Whether binding was seen depends on the method and setting. In cells and extracts the contact can be indirect. Some binding calls cover weakened binding; strength is not graded here.

Sequences of proteins named here, by UniProt entry; tags and fusion partners are left off.
UniProt Q08024: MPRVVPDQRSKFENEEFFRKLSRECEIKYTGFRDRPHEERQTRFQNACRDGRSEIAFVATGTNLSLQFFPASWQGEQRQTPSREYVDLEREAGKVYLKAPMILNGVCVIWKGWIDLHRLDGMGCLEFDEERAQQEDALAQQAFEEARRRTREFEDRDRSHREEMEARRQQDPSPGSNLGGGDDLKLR
UniProt Q03347: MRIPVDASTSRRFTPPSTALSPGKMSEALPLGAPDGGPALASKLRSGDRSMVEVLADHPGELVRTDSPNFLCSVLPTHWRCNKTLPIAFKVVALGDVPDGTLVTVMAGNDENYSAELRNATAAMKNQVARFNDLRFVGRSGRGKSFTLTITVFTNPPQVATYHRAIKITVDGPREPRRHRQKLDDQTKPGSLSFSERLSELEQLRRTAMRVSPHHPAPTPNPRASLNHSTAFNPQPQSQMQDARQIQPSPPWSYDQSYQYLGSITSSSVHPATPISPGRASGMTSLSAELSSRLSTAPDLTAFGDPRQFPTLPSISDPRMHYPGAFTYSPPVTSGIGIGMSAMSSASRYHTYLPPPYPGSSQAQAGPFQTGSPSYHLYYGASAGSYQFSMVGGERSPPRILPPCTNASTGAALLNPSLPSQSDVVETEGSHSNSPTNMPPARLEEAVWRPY

Target: N-terminally Flag-tagged CBFβ protein (Flag-CBFβ) (mouse (endogenous locus, knockin)) (UniProt Q08024)
Assay: co-IP; anti-Flag M2 affinity gel on clarified lysates of acutely dissected DRGs from P0 Cbfb^Flag/Flag and wildtype mice; lysis buffer 50 mM Tris HCl, 150 mM NaCl, 1 mM EDTA, 1% Triton X-100, pH 7.5; blots with Runx1 and CBFβ antibodies

binding: binds
Substance: Runx1 (from UniProt Q03347 1-451)
